± gives the standard deviation of the averaged measurements. This is one part of the list. Single values are uncertain, as repeats are few or missing.

This assay relates to Saccharomyces cerevisiae BY4743. Briefly: growth (OD600) with compound + IPBC relative to untreated control; higher = less growth inhibition. To be noted: compound concentration: 133 uM; IPBC concentration: 0.5 ug/ml; 20 h. As to the method: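 NMCCC compounds (133 uM) combined with IPBC (0.5 ug/ml) against Saccharomyces cerevisiae BY4743 in YPD, 96-well plates. Growth was read as OD600 at 20 h and expressed as % of the untreated control. Single pass.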
As to `COc1ccc(Br)c(C(=O)Nc2ccc(S(=O)(=O)C(F)F)cc2)c1` + CCCCNC(=O)OCC#CI [3-iodo-2-propynyl butylcarbamate (IPBC)], the growth worked out at 108%.

On to `Cc1c(SCCO)c(O)nc2cc3c(cc12)OCO3` + CCCCNC(=O)OCC#CI [3-iodo-2-propynyl butylcarbamate (IPBC)], for which the growth turned out to be 89.9 ± 6.5%.

Take `CC(=O)N1CCSc2ccc(S(=O)(=O)Nc3ccc(OC(F)(F)F)cc3)cc21` + CCCCNC(=O)OCC#CI [3-iodo-2-propynyl butylcarbamate (IPBC)]: the growth stood at 117%.

Turning to `CCc1sc(C(=O)N(C)Cc2ccc3c(c2)OCO3)cc1C` + CCCCNC(=O)OCC#CI [3-iodo-2-propynyl butylcarbamate (IPBC)], the growth came to 103%.

Take `COc1cc(OC)c(NC(=O)CCNS(=O)(=O)c2ccc3c(c2)CC(C)N3C(C)=O)cc1Cl` (centres undefined) + CCCCNC(=O)OCC#CI [3-iodo-2-propynyl butylcarbamate (IPBC)]: the growth came out at 105%.

`CCOC(=O)c1ncn(-c2ccc(OC)cc2)c1N` + CCCCNC(=O)OCC#CI [3-iodo-2-propynyl butylcarbamate (IPBC)]: the growth came out at 80%.

As for `CCN(CC)S(=O)(=O)c1cccc(C(=O)N[C@H](C(=O)Nc2ccc3c(c2)OCCO3)C(C)C)c1` + CCCCNC(=O)OCC#CI [3-iodo-2-propynyl butylcarbamate (IPBC)], the growth was 109%.

On to `CC(C)C\C1=N\N(C(=O)C2=CC=CO2)C(O)(C1)C(F)(F)F` (centres undefined) + CCCCNC(=O)OCC#CI [3-iodo-2-propynyl butylcarbamate (IPBC)], for which the growth is 98.2%.

`Cc1cc(C(F)(F)F)c2c(C#N)cn(-c3cnn(C)c3)c2n1` + CCCCNC(=O)OCC#CI [3-iodo-2-propynyl butylcarbamate (IPBC)]: the growth was 102%.

On to `CCN(CC(=O)NCc1cccs1)C(=O)c1ccc(-n2cccn2)cc1` + CCCCNC(=O)OCC#CI [3-iodo-2-propynyl butylcarbamate (IPBC)], for which the growth amounted to 90.3%.

Turning to `CNc1nc(-c2ccc(OC(F)F)c(OC)c2)cs1` + CCCCNC(=O)OCC#CI [3-iodo-2-propynyl butylcarbamate (IPBC)], the growth came out at 98.3%.

Turning to `CC(C)CN1\C(=C(/C(=O)N(C)C1=O)C2=CSC(=N2)NC3=CC=C(Cl)C=C3)N` + CCCCNC(=O)OCC#CI [3-iodo-2-propynyl butylcarbamate (IPBC)], the growth is 106%.

For `CC/1=C/C(=O)N(/C(=C1C(=O)OCC(=O)NC2(CCCC2)C#N)C)C3=CC=CC=C3` + CCCCNC(=O)OCC#CI [3-iodo-2-propynyl butylcarbamate (IPBC)], the growth was found to be 96.1%.

On to `CCS\C1=N\C2=CC=CC=C2C(=O)N1C3=CC=CN=C3` + CCCCNC(=O)OCC#CI [3-iodo-2-propynyl butylcarbamate (IPBC)], for which the growth was 99.3%.

On to `CCC(=O)Nc1nc2ccc(CC(=O)NCCN(C)C3CCCCC3)cc2s1` + CCCCNC(=O)OCC#CI [3-iodo-2-propynyl butylcarbamate (IPBC)], for which the growth is 89.8%.

In the case of `Cc1ccc(S(=O)(=O)CCc2nc(S(=O)(=O)c3ccc(C)cc3)c(N(C)C)o2)cc1` + CCCCNC(=O)OCC#CI [3-iodo-2-propynyl butylcarbamate (IPBC)], the growth came to 87.9%.

Turning to `CC(C)C\C1=N\N/2C(=O)\C=C(COC3=CC=C(NC(C)=O)C=C3)/N=C2S1` + CCCCNC(=O)OCC#CI [3-iodo-2-propynyl butylcarbamate (IPBC)], the growth came to 81.5%.

For the molecule `COc1cc(C(=O)OCC(=O)N(C)CC2COc3ccccc3O2)ccc1OC(C)C` (centres undefined) + CCCCNC(=O)OCC#CI [3-iodo-2-propynyl butylcarbamate (IPBC)], the growth was found to be 100%.

In the case of `CN(C)C(=O)C(OC(=O)c1ccc2c(c1)CCC(=O)N2)c1ccccc1` (centres undefined) + CCCCNC(=O)OCC#CI [3-iodo-2-propynyl butylcarbamate (IPBC)], the growth amounted to 93.6%.

As for `CCOC(=O)N1CCC(NC(=O)c2cc3cc(Cl)ccc3[nH]2)CC1` + CCCCNC(=O)OCC#CI [3-iodo-2-propynyl butylcarbamate (IPBC)], the growth stood at 78.9%.

`Cc1cc(C)c(S(=O)(=O)NCC(=O)Nc2ccc(C(N)=O)cc2)c(C)c1` + CCCCNC(=O)OCC#CI [3-iodo-2-propynyl butylcarbamate (IPBC)]: the growth is 86.3%.

With `Cc1noc2ncnc(NC(C)CCc3ccccc3)c12` (centres undefined) + CCCCNC(=O)OCC#CI [3-iodo-2-propynyl butylcarbamate (IPBC)], the growth was found to be 106%.

Regarding `O=C(O)c1nnn(-c2ccccc2Cl)c1-c1ccncc1` + CCCCNC(=O)OCC#CI [3-iodo-2-propynyl butylcarbamate (IPBC)], the growth worked out at 84.9%.

In the case of `CC(C)CCNC(=O)c1cc2n(n1)CC(C)(C(=O)NCc1ccc(F)cc1)N(C)C2=O` (centres undefined) + CCCCNC(=O)OCC#CI [3-iodo-2-propynyl butylcarbamate (IPBC)], the growth is 108%.

`COc1ccccc1C(=O)NCCc1nc2cc(NC(=O)CC(C)C)ccc2n1C` + CCCCNC(=O)OCC#CI [3-iodo-2-propynyl butylcarbamate (IPBC)]: the growth stood at 103%.

For `C\C1=C\C(C)(C)N2C(=O)C(=O)C3=CC(=CC1=C23)O` + CCCCNC(=O)OCC#CI [3-iodo-2-propynyl butylcarbamate (IPBC)], the growth is 84.4%.

`CN(Cc1ccc(Cl)s1)C(=O)CSc1nnc(-c2ccc[nH]2)o1` + CCCCNC(=O)OCC#CI [3-iodo-2-propynyl butylcarbamate (IPBC)]: the growth amounted to 100%.

Regarding `CS(=O)(=O)Nc1nc2ccc(NC(=O)COc3ccccc3)cc2s1` + CCCCNC(=O)OCC#CI [3-iodo-2-propynyl butylcarbamate (IPBC)], the growth was 85.7%.

As to `CCN(CC)C(=O)c1sc(N2C(=O)Nc3ccccc3N2O)c(C(=O)OC)c1C` + CCCCNC(=O)OCC#CI [3-iodo-2-propynyl butylcarbamate (IPBC)], the growth came to 91.9%.

Consider `COc1ccccc1NC(=O)CN(C)S(=O)(=O)c1ccc2c(c1)n(C)c(=O)c(=O)n2C` + CCCCNC(=O)OCC#CI [3-iodo-2-propynyl butylcarbamate (IPBC)], for which the growth stood at 107%.

Take `O=C(Nc1cc(Cl)ccc1-n1cncn1)c1cncc(Br)c1` + CCCCNC(=O)OCC#CI [3-iodo-2-propynyl butylcarbamate (IPBC)]: the growth was found to be 84.5%.

Turning to `CCCN(CCC)C(=O)c1oc2ccccc2c1NC(=O)c1ccco1` + CCCCNC(=O)OCC#CI [3-iodo-2-propynyl butylcarbamate (IPBC)], the growth was found to be 94%.

For the molecule `COc1cc(Cl)c(C)cc1NC(=O)NCc1noc2ccccc12` + CCCCNC(=O)OCC#CI [3-iodo-2-propynyl butylcarbamate (IPBC)], the growth is 91.7%.

`Cc1nc(NC(=O)CSc2nncn2C2CC2)sc1C` + CCCCNC(=O)OCC#CI [3-iodo-2-propynyl butylcarbamate (IPBC)]: the growth was found to be 92%.

As to `CCOC(=O)N1CCN(C(=O)c2ccc(S(=O)(=O)N3CCCC(C)C3)cc2)CC1` (centres undefined) + CCCCNC(=O)OCC#CI [3-iodo-2-propynyl butylcarbamate (IPBC)], the growth came to 89.2%.

As for `CCOC(=O)COc1ccc2c(c1)c(C(C)=O)c(C)n2-c1ccc(Cl)cc1` + CCCCNC(=O)OCC#CI [3-iodo-2-propynyl butylcarbamate (IPBC)], the growth was determined as 80.6%.

As to `COc1ccc(NC(=O)c2cccnc2O)cc1N1CCCCC1=O` + CCCCNC(=O)OCC#CI [3-iodo-2-propynyl butylcarbamate (IPBC)], the growth was 96.4%.

For the molecule `O=C(NCc1cc(-c2ccccc2)no1)C(=O)Nc1cc(F)cc(F)c1` + CCCCNC(=O)OCC#CI [3-iodo-2-propynyl butylcarbamate (IPBC)], the growth is 95.8%.

Consider `CCN(CC)S(=O)(=O)c1ccc(Cl)c(NC(=O)COc2ncnc3sccc23)c1` + CCCCNC(=O)OCC#CI [3-iodo-2-propynyl butylcarbamate (IPBC)], for which the growth was found to be 95.7%.

These data come from the supplement of paper PMC8007513.
